Laboratory results reported in paper PMC3707915.
Where two headings read alike, the source gives them in different places. Results are given in words; binding and its absence hold for the method and conditions named. Binding seen in cells or lysates may run through a third protein. These calls come from enrichment with a bait or labelling near it, and not all partners need be listed.

Amino acid sequences for entries named in this document (tags omitted). A change or cut given only in a name is not applied to a line headed by its entry.
UniProt P39938: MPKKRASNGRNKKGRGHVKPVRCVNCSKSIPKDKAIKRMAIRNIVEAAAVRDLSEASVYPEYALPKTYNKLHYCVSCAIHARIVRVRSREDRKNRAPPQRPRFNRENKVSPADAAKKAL
UniProt P53742: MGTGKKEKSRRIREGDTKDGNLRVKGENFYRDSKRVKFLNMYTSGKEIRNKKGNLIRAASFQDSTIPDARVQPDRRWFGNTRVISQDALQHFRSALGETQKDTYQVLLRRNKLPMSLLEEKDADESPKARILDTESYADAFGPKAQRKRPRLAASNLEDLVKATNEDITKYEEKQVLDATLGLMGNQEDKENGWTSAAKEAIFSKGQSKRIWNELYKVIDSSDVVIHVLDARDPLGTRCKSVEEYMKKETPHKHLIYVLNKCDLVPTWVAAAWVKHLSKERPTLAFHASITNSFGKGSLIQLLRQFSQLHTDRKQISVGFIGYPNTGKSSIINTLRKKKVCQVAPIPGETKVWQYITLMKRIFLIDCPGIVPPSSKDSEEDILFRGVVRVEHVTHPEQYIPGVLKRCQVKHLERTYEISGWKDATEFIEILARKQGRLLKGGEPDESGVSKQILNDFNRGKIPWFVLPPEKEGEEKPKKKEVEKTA
UniProt P04449: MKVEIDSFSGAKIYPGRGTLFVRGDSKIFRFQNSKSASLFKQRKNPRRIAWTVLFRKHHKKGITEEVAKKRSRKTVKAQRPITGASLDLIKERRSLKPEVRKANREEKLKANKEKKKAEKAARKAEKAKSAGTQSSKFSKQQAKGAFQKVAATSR

T1: Arx1-TAP (S. cerevisiae) (UniProt Q03862)
T1 sequence: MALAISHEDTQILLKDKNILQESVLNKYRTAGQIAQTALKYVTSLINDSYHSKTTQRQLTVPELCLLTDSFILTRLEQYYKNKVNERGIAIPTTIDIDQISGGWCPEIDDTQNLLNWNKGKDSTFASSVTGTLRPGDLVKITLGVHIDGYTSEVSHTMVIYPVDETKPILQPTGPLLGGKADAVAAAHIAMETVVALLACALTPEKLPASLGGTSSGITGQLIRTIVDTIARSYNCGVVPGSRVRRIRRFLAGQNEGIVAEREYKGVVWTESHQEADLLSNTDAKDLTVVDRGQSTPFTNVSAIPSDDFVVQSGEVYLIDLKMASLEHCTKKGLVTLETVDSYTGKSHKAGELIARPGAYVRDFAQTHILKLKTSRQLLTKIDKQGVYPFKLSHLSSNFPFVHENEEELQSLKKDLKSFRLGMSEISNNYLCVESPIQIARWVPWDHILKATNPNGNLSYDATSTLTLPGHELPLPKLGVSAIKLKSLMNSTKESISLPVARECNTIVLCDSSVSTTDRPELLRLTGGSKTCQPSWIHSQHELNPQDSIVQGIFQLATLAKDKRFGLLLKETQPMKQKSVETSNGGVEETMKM

T2: Rsa4-TAP (S. cerevisiae) (UniProt P25382)
T2 sequence: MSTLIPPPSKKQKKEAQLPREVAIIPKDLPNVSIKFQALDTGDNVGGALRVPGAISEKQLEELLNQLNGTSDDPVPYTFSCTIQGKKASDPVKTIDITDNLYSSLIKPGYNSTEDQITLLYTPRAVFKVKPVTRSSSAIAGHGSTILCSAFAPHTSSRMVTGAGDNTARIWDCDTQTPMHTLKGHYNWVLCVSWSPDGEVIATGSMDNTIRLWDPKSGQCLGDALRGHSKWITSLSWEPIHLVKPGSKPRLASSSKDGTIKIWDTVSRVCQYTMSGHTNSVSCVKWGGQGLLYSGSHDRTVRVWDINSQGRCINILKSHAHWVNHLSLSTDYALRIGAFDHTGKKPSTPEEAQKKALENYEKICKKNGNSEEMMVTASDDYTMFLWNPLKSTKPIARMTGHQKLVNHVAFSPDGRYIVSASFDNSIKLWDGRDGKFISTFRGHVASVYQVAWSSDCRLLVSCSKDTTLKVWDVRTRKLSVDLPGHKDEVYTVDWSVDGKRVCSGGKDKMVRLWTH

T3: Nog1-TAP (S. cerevisiae) (UniProt Q02892)
T3 sequence: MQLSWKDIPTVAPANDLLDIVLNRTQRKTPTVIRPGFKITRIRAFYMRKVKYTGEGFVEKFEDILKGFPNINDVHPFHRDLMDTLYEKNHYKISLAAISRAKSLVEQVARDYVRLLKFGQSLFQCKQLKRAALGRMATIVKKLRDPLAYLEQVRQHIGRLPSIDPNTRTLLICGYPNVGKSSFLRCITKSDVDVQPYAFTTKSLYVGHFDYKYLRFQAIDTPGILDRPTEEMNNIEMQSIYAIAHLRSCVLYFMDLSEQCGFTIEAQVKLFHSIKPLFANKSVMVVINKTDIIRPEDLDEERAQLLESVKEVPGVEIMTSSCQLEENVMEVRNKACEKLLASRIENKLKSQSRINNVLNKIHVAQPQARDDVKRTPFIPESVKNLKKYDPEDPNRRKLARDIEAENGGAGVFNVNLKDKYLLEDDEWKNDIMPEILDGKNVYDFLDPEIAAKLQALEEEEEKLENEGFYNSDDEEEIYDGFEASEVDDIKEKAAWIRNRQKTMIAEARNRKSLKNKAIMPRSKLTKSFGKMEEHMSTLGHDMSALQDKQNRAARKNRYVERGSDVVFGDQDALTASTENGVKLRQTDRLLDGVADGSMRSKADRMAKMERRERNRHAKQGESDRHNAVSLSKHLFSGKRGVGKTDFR

T4: Noc2-TAP (S. cerevisiae) (UniProt P39744)
T4 sequence: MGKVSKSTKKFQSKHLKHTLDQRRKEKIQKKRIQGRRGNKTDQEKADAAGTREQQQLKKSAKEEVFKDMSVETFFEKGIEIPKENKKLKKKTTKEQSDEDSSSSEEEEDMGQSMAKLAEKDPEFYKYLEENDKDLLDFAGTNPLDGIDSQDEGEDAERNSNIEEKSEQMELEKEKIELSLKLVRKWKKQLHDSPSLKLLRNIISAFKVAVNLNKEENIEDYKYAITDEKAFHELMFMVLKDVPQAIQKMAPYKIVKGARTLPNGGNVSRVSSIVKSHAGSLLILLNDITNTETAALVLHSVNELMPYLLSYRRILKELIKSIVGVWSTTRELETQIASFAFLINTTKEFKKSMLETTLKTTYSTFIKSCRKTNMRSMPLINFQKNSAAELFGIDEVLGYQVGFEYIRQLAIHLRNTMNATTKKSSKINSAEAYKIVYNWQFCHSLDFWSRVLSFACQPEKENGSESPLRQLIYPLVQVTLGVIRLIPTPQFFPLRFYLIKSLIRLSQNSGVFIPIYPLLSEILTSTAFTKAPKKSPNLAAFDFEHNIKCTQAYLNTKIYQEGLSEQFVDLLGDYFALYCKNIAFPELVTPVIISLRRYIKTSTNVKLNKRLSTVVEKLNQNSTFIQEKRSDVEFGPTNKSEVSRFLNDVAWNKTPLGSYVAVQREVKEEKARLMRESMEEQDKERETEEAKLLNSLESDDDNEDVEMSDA


Assays:
Arx1-TAP (S. cerevisiae) = target: T1, Arx1-TAP (S. cerevisiae); test: affinity purification with mass spectrometry; TAP-tagged LSU biogenesis factor and associated pre-ribosomal particles purified in one step from total yeast cellular extract on rabbit IgG coupled magnetic beads, 1 h at 4°C, MB buffer (20 mM Tris HCl pH 8, 200 or 300 mM KCl, 5 mM MgOAc) with 0.5% Triton X-100 and 0.1% Tween 20; eluates compared pair wise by semi-quantitative LC-MS/MS with iTRAQ reagents; for Nog1-, Nog2- and Rsa4-TAP wild type against strains in which RPL25, RPL2, RPL43 or RPL21 was shut down for 4 h in glucose
Rsa4-TAP (S. cerevisiae) = target: T2, Rsa4-TAP (S. cerevisiae); test: as above
Nog1-TAP (S. cerevisiae) [1] = target: T3, Nog1-TAP (S. cerevisiae); test: as above
[2] = target: rpS26-FLAG (S. cerevisiae) (UniProt P39938); test: affinity purification with mass spectrometry; rpS26-FLAG and associated 80S ribosomes purified in one step from total yeast cellular extract on anti-FLAG M2 sepharose beads, 1 h at 4°C, MB buffer with 0.5% Triton X-100 and 0.1% Tween; eluates compared pair wise with LSU precursor particles by semi-quantitative LC-MS/MS with iTRAQ reagents
Nog2-TAP (S. cerevisiae) = Nog2-TAP (S. cerevisiae) (UniProt P53742); test: affinity purification with mass spectrometry; TAP-tagged LSU biogenesis factor and associated pre-ribosomal particles purified in one step from total yeast cellular extract on rabbit IgG coupled magnetic beads, 1 h at 4°C, MB buffer (20 mM Tris HCl pH 8, 200 or 300 mM KCl, 5 mM MgOAc) with 0.5% Triton X-100 and 0.1% Tween 20; eluates compared pair wise by semi-quantitative LC-MS/MS with iTRAQ reagents; for Nog1-, Nog2- and Rsa4-TAP wild type against strains in which RPL25, RPL2, RPL43 or RPL21 was shut down for 4 h in glucose
Noc2-TAP (S. cerevisiae) = target: T4, Noc2-TAP (S. cerevisiae); test: as above
Nog1-TAP (S. cerevisiae) [3] = target: T3, Nog1-TAP (S. cerevisiae); test: as above; remark: listed apart in the source

binding (Arx1-TAP (S. cerevisiae)) | binding (Rsa4-TAP (S. cerevisiae)) | binding (Nog1-TAP (S. cerevisiae) [1]) | binding (Noc2-TAP (S. cerevisiae)) | Molecule | also measured
– | binds | binds | – | rpL21 (S. cerevisiae) | –
binds | binds | binds | – | rpL24 (from UniProt P04449) | binding [2]: binds; binding (Nog2-TAP (S. cerevisiae)): binds
– | – | – | binds | Ebp2 (protein, UniProt P36049 1-427) MAKGFKLKELLSHQKEIEKAEKLENDLKKKKSQELKKEEPTIVTASNLKKLEKKEKKADVKKEVAADTEEYQSQALSKKEKRKLKKELKKMQEQDATEAQKHMSGDEDESGDDREEEEEEEEEEEGRLDLEKLAKSDSESEDDSESENDSEEDEDVVAKEESEEKEEQEEEQDVPLSDVEFDSDADVVPHHKLTVNNTKAMKHALERVQLPWKKHSFQEHQSVTSETNTDEHIKDIYDDTERELAFYKQSLDAVLVARDELKRLKVPFKRPLDYFAEMVKSDEHMDKIKGKLIEEASDKKAREEARRQRQLKKFGKQVQNATLQKRQLEKRETLEKIKSLKNKRKHNEIDHSEFNVGVEEEVEGKRFDRGRPNGKRAAKNAKYGQGGMKRFKRKNDATSSADVSGFSSRKMKGKTNRPGKSRRARRF | –

The next lines start with the molecule.

Molecule | binding (Arx1-TAP (S. cerevisiae)) | binding (Rsa4-TAP (S. cerevisiae)) | binding (Nog1-TAP (S. cerevisiae) [1]) | binding (Noc2-TAP (S. cerevisiae)) | also measured
rpL40 (S. cerevisiae) | binds | binds | – | – | –
Brx1 (protein, UniProt Q08235 1-291) MSSIYKALAGKSKDNKSEKKQGNVKQFMNKQRTLLISSRGVNYRHRHLIQDLSGLLPHSRKEPKLDTKKDLQQLNEIAELYNCNNVLFFEARKHQDLYLWLSKPPNGPTIKFYIQNLHTMDELNFTGNCLKGSRPVLSFDQRFESSPHYQLIKELLVHNFGVPPNARKSKPFIDHVMSFSIVDDKIWVRTYEISHSTKNKEEYEDGEEDISLVEIGPRFVMTVILILEGSFGGPKIYENKQYVSPNVVRAQIKQQAAEEAKSRAEAAVERKIKRRENVLAADPLSNDALFK | – | – | – | binds | binding (Nog1-TAP (S. cerevisiae) [3]): binds
